From the supplement of paper PMC10849652
Some of the results follow.

By UniProt entry, the sequences of proteins in these tests, tags left out. Where a name states a change or a piece, a line headed by the entry shows the natural chain unless it says otherwise.
UniProt O94864: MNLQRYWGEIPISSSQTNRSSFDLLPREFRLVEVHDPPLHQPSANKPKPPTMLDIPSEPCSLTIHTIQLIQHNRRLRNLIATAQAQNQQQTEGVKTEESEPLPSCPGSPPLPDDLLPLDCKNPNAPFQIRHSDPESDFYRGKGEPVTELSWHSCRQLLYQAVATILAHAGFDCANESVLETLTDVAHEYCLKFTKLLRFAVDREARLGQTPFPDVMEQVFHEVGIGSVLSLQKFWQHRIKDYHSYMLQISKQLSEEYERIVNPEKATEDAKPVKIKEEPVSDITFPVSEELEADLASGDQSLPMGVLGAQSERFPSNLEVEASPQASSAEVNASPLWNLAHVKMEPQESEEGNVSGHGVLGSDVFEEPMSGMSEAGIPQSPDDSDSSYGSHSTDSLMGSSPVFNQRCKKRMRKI
UniProt O15056: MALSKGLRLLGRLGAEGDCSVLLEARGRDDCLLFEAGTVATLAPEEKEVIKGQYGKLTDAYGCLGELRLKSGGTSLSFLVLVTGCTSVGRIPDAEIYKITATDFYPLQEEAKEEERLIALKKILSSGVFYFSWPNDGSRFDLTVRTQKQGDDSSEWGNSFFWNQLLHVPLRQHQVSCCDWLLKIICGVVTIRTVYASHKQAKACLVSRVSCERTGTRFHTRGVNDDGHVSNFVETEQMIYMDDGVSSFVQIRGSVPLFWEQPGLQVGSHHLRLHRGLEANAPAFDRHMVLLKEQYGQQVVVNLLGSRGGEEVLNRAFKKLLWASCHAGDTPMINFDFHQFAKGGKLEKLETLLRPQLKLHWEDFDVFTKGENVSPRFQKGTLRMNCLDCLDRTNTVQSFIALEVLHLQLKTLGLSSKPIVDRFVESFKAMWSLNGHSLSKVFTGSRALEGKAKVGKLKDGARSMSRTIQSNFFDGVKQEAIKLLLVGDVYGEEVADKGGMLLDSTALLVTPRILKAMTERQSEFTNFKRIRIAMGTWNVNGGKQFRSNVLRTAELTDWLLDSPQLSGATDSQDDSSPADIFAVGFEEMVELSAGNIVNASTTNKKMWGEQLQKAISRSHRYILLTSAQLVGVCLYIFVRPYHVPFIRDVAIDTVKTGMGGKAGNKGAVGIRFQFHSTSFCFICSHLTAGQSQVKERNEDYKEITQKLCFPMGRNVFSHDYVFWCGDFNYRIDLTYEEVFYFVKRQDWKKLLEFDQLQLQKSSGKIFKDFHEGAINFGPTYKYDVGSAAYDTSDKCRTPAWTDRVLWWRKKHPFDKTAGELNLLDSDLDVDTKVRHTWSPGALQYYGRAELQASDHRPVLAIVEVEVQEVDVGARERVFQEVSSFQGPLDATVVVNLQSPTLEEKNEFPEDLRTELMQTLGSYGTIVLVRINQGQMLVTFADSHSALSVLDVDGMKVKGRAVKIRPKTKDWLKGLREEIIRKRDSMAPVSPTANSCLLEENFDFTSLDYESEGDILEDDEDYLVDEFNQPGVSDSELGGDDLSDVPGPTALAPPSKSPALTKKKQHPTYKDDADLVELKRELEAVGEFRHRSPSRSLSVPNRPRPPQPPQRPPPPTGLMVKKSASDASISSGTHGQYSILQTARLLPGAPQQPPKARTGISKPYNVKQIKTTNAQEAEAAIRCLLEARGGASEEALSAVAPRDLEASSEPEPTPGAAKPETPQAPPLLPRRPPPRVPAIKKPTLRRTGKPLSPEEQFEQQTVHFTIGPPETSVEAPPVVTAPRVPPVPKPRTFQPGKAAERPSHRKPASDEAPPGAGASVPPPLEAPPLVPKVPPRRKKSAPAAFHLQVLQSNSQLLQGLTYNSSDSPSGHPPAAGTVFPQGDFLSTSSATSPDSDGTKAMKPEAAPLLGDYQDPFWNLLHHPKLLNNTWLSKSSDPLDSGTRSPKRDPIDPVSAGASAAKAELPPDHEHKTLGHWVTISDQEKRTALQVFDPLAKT
UniProt Q8IYB8: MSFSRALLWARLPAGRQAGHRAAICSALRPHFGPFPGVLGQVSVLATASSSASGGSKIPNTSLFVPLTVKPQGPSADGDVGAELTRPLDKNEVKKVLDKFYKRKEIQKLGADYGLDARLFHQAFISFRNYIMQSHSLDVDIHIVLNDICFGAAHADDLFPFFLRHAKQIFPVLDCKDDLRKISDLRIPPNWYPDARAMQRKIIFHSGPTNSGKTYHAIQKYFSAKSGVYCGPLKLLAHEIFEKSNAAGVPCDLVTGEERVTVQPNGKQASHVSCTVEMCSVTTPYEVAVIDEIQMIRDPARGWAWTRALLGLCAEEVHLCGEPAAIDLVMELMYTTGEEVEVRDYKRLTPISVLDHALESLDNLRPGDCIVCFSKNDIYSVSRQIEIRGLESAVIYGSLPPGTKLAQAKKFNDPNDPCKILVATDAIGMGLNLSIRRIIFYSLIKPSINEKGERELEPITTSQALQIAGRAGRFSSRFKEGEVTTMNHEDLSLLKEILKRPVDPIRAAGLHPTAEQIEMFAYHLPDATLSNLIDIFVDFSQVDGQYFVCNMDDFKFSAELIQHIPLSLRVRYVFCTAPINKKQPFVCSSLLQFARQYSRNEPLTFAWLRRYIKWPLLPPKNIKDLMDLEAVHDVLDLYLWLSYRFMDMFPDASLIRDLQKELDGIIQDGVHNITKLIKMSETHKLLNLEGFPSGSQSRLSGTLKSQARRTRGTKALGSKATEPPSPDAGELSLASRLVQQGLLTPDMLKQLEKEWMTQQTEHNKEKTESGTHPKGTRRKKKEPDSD
UniProt O00186: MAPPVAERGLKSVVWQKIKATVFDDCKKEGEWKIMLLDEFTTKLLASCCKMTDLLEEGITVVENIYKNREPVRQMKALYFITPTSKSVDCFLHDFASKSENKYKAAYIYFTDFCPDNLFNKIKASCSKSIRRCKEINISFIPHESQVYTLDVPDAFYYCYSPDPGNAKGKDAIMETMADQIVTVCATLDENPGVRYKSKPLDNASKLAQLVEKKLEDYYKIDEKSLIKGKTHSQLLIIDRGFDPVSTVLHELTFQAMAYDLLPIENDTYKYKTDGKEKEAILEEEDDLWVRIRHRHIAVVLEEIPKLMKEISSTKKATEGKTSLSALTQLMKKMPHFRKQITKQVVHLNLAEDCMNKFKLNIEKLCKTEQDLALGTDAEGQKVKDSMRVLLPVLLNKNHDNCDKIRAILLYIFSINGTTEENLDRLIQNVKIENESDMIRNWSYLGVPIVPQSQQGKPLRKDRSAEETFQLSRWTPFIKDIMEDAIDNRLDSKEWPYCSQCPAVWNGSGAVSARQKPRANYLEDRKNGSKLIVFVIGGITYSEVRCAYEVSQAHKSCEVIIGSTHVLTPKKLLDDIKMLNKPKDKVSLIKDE
UniProt Q8NBJ7: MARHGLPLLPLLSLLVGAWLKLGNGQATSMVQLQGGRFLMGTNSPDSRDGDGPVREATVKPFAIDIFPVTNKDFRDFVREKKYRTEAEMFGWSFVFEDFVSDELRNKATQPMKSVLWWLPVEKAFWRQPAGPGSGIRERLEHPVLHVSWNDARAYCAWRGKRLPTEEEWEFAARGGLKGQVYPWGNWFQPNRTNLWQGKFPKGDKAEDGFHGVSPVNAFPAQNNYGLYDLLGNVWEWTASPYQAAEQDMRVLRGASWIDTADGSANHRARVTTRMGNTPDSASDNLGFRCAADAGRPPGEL
UniProt P49848, whole entry, looked up: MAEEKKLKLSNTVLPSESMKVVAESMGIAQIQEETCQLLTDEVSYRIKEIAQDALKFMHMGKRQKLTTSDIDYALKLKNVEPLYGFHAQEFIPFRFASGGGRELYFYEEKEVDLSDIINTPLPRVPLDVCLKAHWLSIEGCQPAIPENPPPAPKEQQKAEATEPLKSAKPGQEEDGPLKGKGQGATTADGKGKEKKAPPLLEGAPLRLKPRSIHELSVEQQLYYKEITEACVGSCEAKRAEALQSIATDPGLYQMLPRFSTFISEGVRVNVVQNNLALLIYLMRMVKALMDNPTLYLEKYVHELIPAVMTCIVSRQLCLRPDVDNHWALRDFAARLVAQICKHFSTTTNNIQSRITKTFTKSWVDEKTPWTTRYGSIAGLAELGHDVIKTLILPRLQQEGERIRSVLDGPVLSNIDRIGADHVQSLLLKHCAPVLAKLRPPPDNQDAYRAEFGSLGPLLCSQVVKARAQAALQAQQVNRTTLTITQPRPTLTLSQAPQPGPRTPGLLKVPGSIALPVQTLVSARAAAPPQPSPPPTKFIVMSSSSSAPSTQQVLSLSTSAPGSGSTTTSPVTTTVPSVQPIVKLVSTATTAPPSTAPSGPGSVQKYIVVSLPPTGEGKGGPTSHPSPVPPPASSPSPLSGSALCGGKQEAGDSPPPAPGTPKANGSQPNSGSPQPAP
UniProt Q13188: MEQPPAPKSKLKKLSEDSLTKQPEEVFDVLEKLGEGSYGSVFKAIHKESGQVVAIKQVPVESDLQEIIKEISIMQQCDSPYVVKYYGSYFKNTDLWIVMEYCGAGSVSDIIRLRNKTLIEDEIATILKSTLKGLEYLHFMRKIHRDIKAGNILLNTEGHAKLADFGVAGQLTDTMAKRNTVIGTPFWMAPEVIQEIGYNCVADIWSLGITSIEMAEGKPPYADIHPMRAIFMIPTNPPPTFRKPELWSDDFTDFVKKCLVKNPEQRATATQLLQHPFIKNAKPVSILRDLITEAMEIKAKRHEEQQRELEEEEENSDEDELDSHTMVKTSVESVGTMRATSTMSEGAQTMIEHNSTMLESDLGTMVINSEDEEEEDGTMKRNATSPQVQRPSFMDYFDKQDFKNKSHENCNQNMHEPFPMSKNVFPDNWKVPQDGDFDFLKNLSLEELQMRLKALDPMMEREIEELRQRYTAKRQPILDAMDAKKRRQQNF
UniProt Q8TCJ2: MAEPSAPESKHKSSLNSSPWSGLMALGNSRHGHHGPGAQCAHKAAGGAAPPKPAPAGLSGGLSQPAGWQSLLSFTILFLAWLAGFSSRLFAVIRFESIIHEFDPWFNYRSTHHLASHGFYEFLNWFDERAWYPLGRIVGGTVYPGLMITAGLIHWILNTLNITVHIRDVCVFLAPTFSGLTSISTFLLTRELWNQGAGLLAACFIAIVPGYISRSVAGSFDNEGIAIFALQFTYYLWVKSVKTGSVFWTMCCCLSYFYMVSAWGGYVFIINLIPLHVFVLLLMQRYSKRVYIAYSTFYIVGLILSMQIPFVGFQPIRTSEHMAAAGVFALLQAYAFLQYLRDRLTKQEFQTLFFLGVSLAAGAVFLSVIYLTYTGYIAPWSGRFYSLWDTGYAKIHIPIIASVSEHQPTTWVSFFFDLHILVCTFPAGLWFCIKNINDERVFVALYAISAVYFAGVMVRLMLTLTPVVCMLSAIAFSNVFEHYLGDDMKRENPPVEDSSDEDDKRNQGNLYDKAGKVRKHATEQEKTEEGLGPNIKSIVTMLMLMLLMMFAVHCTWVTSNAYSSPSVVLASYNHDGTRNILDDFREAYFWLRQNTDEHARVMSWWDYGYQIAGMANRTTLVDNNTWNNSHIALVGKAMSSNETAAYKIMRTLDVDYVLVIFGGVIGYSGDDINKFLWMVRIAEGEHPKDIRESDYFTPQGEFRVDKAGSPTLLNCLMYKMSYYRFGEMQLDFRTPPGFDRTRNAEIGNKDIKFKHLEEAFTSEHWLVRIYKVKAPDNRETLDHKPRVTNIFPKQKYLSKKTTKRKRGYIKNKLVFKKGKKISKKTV
UniProt Q15542, whole entry, looked up: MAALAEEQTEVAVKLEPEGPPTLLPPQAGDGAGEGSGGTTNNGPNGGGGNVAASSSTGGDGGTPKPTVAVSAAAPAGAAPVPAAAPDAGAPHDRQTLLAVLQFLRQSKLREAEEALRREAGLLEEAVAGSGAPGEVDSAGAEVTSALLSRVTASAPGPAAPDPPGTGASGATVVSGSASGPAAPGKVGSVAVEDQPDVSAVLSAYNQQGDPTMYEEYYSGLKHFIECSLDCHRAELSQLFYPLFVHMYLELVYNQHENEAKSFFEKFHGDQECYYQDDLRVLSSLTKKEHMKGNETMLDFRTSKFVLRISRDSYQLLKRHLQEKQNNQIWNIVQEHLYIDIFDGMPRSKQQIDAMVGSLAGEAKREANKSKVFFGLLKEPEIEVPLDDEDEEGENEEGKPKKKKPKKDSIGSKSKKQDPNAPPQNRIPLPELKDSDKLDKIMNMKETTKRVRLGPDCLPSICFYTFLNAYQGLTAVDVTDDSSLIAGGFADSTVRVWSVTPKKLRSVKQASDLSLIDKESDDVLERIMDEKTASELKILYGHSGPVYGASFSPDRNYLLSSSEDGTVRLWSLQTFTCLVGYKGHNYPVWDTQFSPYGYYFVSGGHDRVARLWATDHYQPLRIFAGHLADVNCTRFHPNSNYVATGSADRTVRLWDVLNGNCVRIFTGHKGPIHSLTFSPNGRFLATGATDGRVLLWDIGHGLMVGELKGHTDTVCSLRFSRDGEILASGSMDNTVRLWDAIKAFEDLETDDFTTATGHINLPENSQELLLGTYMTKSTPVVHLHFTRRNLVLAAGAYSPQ

Experiments:
Experiment in all cases: log2 fold change, soluble protein after heating vs DMSO (PISA); higher = thermal stabilisation; K562 lysate, 10 uM; active = over 0.2 and 3.5 SD of the protein, either way, in both replicates (recomputed)
erlotinib = compound: C#Cc1cccc(Nc2ncnc3cc(OCCOC)c(OCCOC)cc23)c1 [erlotinib]
Outline: (§1)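 Pellets of K562 cells were dounce-homogenised in PBS pH 7.4 with 1 mM MgCl2, and the crude extract was held at 1 mg/mL protein for a 30 min treatment with 10 μM compound. Aliquots were heated for 3 min over 48°C-58°C and pooled before NP-40 was added to 0.5% at 4°C. The supernatant from 21,000xg for 90 min was quantified by TMTpro 16plex LC-MS/MS with channel sums equalised. Values are reported from duplicates as log-two fold change in thermal stability relative to solvent controls.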

[1] = compound: C/C(=N\NC(=O)C1=CC(=CC=C1)S(=O)(=O)N2CCOCC2)/C3=C(C=CC(=C3)Cl)O
Outline: as §1

[2] = compound: C1=CC(=CC=C1C2=NC3=C(N2)C=C(C=C3)C(=O)N)OC4=CC=C(C=C4)Cl
Outline: as §1

[3] = compound: C1=CC2=C(C=CC(=C2)/C=C\3/C(=O)NC(=NCC4=CC=CS4)S3)N=C1
Outline: as §1

[4] = compound: C1=CC2=NC=CN=C2C=C1/C=C/3\C(=O)NC(=O)S3
Outline: as §1

[5] = compound: C1=CC=C(C=C1)C2=NC(=C(N2)C3=CC=NC=C3)C4=CC(=C(C=C4)Cl)O
Outline: as §1

[6] = compound: C1=CC=C2C(=C1)C3=NNC4=CC=CC(=C43)C2=O
Outline: as §1

[7] = compound: C1CCN(C1)C(=O)NC2=CC=CC(=C2)NC3=NC=C(C(=N3)NCCC4=CN=CN4)Br
Outline: as §1

[8] = compound: C1CN(CCC1(CC2=CC=C(C=C2)Cl)N)C3=NC=NC4=C3C=CN4
Outline: as §1

IRAK-1-4 Inhibitor I = compound: C1COCCN1CCN2C3=CC=CC=C3N=C2NC(=O)C4=CC(=CC=C4)[N+](=O)[O-] [IRAK-1-4 Inhibitor I]
Outline: as §1

ibrutinib = compound: C=CC(=O)N1CCC[C@@H](n2nc(-c3ccc(Oc4ccccc4)cc3)c3c(N)ncnc32)C1 [ibrutinib]
Outline: as §1

[9] = compound: CC(=O)c1cnc2ccc(-c3cc(Cl)c(O)c(Cl)c3)nc2c1N[C@H]1CC[C@H](CN(C)C)CC1
Outline: as §1

ralimetinib = compound: CC(C)(C)Cn1c(N)nc2ccc(-c3[nH]c(C(C)(C)C)nc3-c3ccc(F)cc3)nc21 [ralimetinib]
Outline: as §1

[10] = compound: CC(C)(O)CC(=O)NCCn1ccc2ncnc(Nc3ccc(Oc4cccc(C(F)(F)F)c4)c(Cl)c3)c21
Outline: as §1

[11] = compound: CC(C)C1=C2N=C(C=C(N2N=C1)NCC3=CC=CC=C3)NCCCCCCN
Outline: as §1

[12] = compound: CC1=C(C(CC(=O)N1)C2=CC=C(C=C2)C(F)(F)F)C(=O)NC3=C(C=C4C(=C3)C=NN4)F
Outline: as §1

[13] = compound: CC1=C(C2=C(C=C1)C(=O)C3=CC=CC=C3N2CCCN)C
Outline: as §1

[14] = compound: CC1=C(C=C(C=C1)NC(=O)C2=CC(=CC=C2)C(C)(C)C#N)NC3=CC4=C(C=C3)N=CN(C4=O)C
Outline: as §1

[15] = compound: CC1=C(C=C(C=C1)NC(=O)C2=CC(=CC=C2)N(C)C)NC(=O)C3=CC=C(C=C3)O
Outline: as §1

[16] = compound: CC1=CC=C(C=C1)SC2=C3C=C(SC3=CN=C2)C(=O)N
Outline: as §1

Measured: log2 fold change

SUPT7L (UniProt O94864)
inactive: erlotinib -0.087 | [1] -0.003 | [2] -0.024 | [3] -0.037 | [4] -0.057 | [5] 0.113 | [6] -0.041 | [7] -0.086 | [8] -0.005 | IRAK-1-4 Inhibitor I 0.025 | ibrutinib -0.016 | [9] 0.045 | ralimetinib 0.01 | [10] -0.113 | [11] -0.117 | [12] -0.105 | [13] -0.035 | [14] 0.032 | [15] -0.07 | [16] -0.097

SYNJ2 (UniProt O15056)
inactive: erlotinib 0.001 | [1] -0.014 | [2] -0.012 | [3] -0.059 | [4] -0.043 | [5] -0.019 | [6] 0.014 | [7] -0.097 | [8] 0.039 | IRAK-1-4 Inhibitor I 0.032 | ibrutinib -0.01 | [9] 0.008 | ralimetinib 0.025 | [10] -0.026 | [11] -0.022 | [12] -0.053 | [13] 0.03 | [14] -0.001 | [15] 0.017 | [16] -0.023

SUPV3L1 (UniProt Q8IYB8)
inactive: erlotinib -0.007 | [1] 0.036 | [2] 0.002 | [3] -0.009 | [4] 0.01 | [5] -0.028 | [6] -0.025 | [7] -0.006 | [8] 0.028 | IRAK-1-4 Inhibitor I -0.014 | ibrutinib 0.014 | [9] -0.02 | ralimetinib 0.008 | [10] -0.003 | [11] -0.001 | [12] -0.004 | [13] 0.013 | [14] 0.021 | [15] -0.025 | [16] -0.002

STXBP3 (UniProt O00186)
inactive: erlotinib 0.015 | [1] -0.026 | [2] -0.027 | [3] -0.003 | [4] 0.012 | [5] -0.003 | [6] 0.001 | [7] -0.01 | [8] -0.008 | IRAK-1-4 Inhibitor I -0.01 | ibrutinib 0.021 | [9] 0.02 | ralimetinib -0.01 | [10] 0.011 | [11] -0.013 | [12] 0.001 | [13] 0.016 | [14] -0.042 | [15] -0.018 | [16] -0.007

SUMF2 (UniProt Q8NBJ7)
inactive: erlotinib 0.002 | [1] 0.006 | [2] 0.026 | [3] -0.009 | [4] 0.003 | [5] -0.007 | [6] -0.066 | [7] -0.032 | [8] 0.014 | IRAK-1-4 Inhibitor I 0.032 | ibrutinib -0.019 | [9] -0.03 | ralimetinib 0.021 | [10] -0.031 | [11] -0.015 | [12] -0.022 | [13] 0.015 | [14] -0.006 | [15] 0.028 | [16] 0.016

SUCLG2 (UniProt Q96I99)
inactive: erlotinib 0.005 | [1] -0.011 | [2] 0.001 | [3] -0.016 | [4] 0.015 | [5] -0.002 | [6] -0.021 | [7] 0 | [8] 0.018 | IRAK-1-4 Inhibitor I 0.014 | ibrutinib 0.018 | [9] 0.006 | ralimetinib 0.014 | [10] -0.013 | [11] 0.016 | [12] 0 | [13] 0.013 | [14] -0.005 | [15] 0.012 | [16] -0.014

TAF6 isoform 3 (UniProt P49848)
inactive: erlotinib -0.032 | [1] -0.052 | [2] 0.046 | [3] -0.031 | [4] -0.084 | [5] 0.025 | [6] -0.041 | [7] -0.078 | [8] 0.012 | IRAK-1-4 Inhibitor I -0.013 | ibrutinib -0.173 | [9] 0.038 | ralimetinib 0.032 | [10] -0.077 | [11] 0.004 | [12] -0.029 | [13] 0.013 | [14] -0.063 | [15] 0.023 | [16] 0.002

SUGP2 (UniProt Q8IX01)
inactive: erlotinib 0.04 | [1] -0.053 | [2] -0.069 | [3] -0.004 | [4] 0.064 | [5] -0.024 | [6] -0.071 | [7] 0.053 | [8] 0.044 | IRAK-1-4 Inhibitor I 0.098 | ibrutinib 0.097 | [9] -0.014 | ralimetinib 0.097 | [10] -0.038 | [11] 0.155 | [12] 0.038 | [13] -0.069 | [14] -0.134 | [15] -0.126 | [16] -0.022

STK3 isoform 2 (UniProt Q13188)
inactive: erlotinib -0.009 | [1] -0.1 | [2] 0.012 | [3] -0.07 | [4] -0.001 | [5] 0.016 | [6] 0.181 | [7] 0.157 | [8] 0.031 | IRAK-1-4 Inhibitor I -0.005 | ibrutinib 0.11 | [9] 0.364 | ralimetinib -0.001 | [10] 0.037 | [11] 0.026 | [12] -0.005 | [13] 0 | [14] -0.025 | [15] 0.016 | [16] -0.073

SULT1A1 (UniProt P50225)
inactive: erlotinib -0.045 | [1] 0.08 | [2] -0.014 | [3] 0.069 | [4] 0.048 | [5] -0.011 | [6] -0.061 | [7] -0.026 | [8] 0.018 | IRAK-1-4 Inhibitor I -0.04 | ibrutinib 0.02 | [9] -0.027 | ralimetinib 0.028 | [10] -0.03 | [11] 0.03 | [12] -0.009 | [13] -0.06 | [14] 0.022 | [15] 0.047 | [16] 0.006

TACC3 (UniProt Q9Y6A5)
inactive: erlotinib -0.015 | [1] 0.022 | [2] 0.033 | [3] 0.027 | [4] -0.025 | [5] 0.01 | [6] 0.03 | [7] 0.011 | [8] -0.022 | IRAK-1-4 Inhibitor I 0.01 | ibrutinib -0.001 | [9] 0 | ralimetinib 0.006 | [10] 0.014 | [11] -0.004 | [12] -0.005 | [13] 0.011 | [14] -0.031 | [15] -0.004 | [16] -0.016

SYNE1 (UniProt Q8NF91)
inactive: erlotinib 0.05 | [1] 0.015 | [2] 0.037 | [3] -0.018 | [4] -0.049 | [5] 0.081 | [6] -0.191 | [7] -0.067 | [8] 0.101 | IRAK-1-4 Inhibitor I 0.173 | ibrutinib -0.011 | [9] -0.096 | ralimetinib -0.125 | [10] -0.259 | [11] 0.019 | [12] -0.008 | [13] -0.168 | [14] 0.326 | [15] 0.037 | [16] -0.002

TAF4 (UniProt O00268)
inactive: erlotinib -0.004 | [1] 0.007 | [2] -0.04 | [3] 0.045 | [4] -0.041 | [5] 0.038 | [6] -0.024 | [7] -0.08 | [8] 0.024 | IRAK-1-4 Inhibitor I 0.013 | ibrutinib -0.178 | [9] -0.047 | ralimetinib -0.001 | [10] -0.053 | [11] 0.057 | [12] 0.007 | [13] -0.019 | [14] -0.021 | [15] 0.003 | [16] 0.026

STRIP2 (UniProt Q9ULQ0)
inactive: erlotinib 0.057 | [1] -0.009 | [2] 0.007 | [3] 0.02 | [4] 0.003 | [5] -0.004 | [6] -0.015 | [7] 0.008 | [8] 0.015 | IRAK-1-4 Inhibitor I 0.027 | ibrutinib 0.051 | [9] 0.021 | ralimetinib 0.054 | [10] -0.045 | [11] 0.009 | [12] -0.011 | [13] -0.005 | [14] 0.021 | [15] 0.087 | [16] 0.007

STT3B (UniProt Q8TCJ2)
inactive: erlotinib 0.007 | [1] 0.032 | [2] -0.006 | [3] 0.014 | [4] -0.031 | [5] -0.026 | [6] -0.061 | [7] 0.006 | [8] -0.045 | IRAK-1-4 Inhibitor I -0.009 | ibrutinib -0.059 | [9] -0.026 | ralimetinib 0.01 | [10] -0.048 | [11] -0.018 | [12] 0.001 | [13] 0.015 | [14] 0.02 | [15] 0.044 | [16] 0.012

TAF5 (UniProt Q15542)
inactive: erlotinib -0.078 | [1] 0.039 | [2] -0.137 | [3] -0.029 | [4] -0.079 | [5] -0.081 | [6] 0.029 | IRAK-1-4 Inhibitor I 0.051 | ibrutinib 0.049 | [9] 0.191 | ralimetinib 0.154 | [10] 0.019 | [11] 0.022 | [13] 0.064 | [15] 0.117 | [16] 0.068
